Laboratory results taken from publication PMC13590098.
No constants are given. Whether binding was seen depends on the method and setting. Some results given as binding are weak or reduced against the parent protein; the word gives no strength.

Protein sequences, listed by entry. Tags and fused reporters are not part of them. Residues count along the entry.
UniProt P08476, residues 311-426: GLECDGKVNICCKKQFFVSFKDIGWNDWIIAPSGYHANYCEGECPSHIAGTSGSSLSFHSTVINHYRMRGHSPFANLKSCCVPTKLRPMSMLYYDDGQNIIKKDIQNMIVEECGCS
UniProt P19883, residues 30-317: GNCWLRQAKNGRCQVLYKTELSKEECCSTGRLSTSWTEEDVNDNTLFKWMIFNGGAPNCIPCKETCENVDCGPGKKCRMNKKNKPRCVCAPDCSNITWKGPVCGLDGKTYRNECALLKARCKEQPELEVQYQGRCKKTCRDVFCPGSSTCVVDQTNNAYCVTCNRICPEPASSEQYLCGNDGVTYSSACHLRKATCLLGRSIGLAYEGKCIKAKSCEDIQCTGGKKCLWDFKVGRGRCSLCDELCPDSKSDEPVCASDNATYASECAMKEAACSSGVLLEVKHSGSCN

Key:
GDF11 = target: T1, GDF11 (UniProt O95390); test: heparin affinity chromatography of the purified complex, fractions by Western blot; complexes formed from ligand and excess Fst288 (1:2.5 molar ratio, 4 °C, few hours) and purified on Superdex 200; 100 μg applied to a 1 ml HiTrap column, linear gradient up to 2 M NaCl over 120 column volumes; both purified
T1 sequence: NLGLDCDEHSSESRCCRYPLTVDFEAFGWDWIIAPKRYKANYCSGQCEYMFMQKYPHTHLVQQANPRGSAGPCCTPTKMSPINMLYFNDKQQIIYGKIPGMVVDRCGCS

activin A = activin A (UniProt P08476); test: heparin affinity chromatography of the purified complex, fractions by Western blot; both purified

follistatin 288 (from UniProt P19883-2 30-317)
binding (GDF11): binds
binding (activin A): binds
